# Measured values reported in PubChem BioAssay AID588330 (National Center for Advancing Translational Sciences (NCATS), 2011).
# The shares of active, inactive and inconclusive entries below differ from those in the screen. Potencies of inconclusive entries are doubtful fits and often do not repeat. Calls of active or inactive are those of the source. Calls come from the whole dose curve; as a rule, active = well fitted inhibition curve with a large enough effect; inconclusive = small, poorly fitted or top-dose-only effect; inactive = flat fitted curve, though single readings scatter.
# Tested on: 6-phosphofructokinase (Trypanosoma brucei)
# Test: Confirmatory Assay to Find Inhibitors of T. brucei phosphofructokinase: High ATP
# Conditions: T. brucei PFK, Kinase-Glo luminescence; series mostly up to 57.5 µM
# From the text: Various species of the protozoan family Trypanosomatidae are responsible for a range of serious human diseases in tropical and subtropical areas of the world. […] Many of the disorders caused by trypanosomatids are fatal if left untreated, but most currently used drugs are inefficient and toxic. […] Oxidative metabolism involving the mitochondrial tricarboxylic acid cycle and oxidative phosphorylation are repressed in these parasites, and recent RNA interference (RNAi) experiments have shown that even partial depletion of certain individual glycolytic enzymes can lead to the death of cultured parasites. One such glycolytic enzyme, phosphofructokinase (PFK), catalyzes the formation of fructose-1,6-bisphosphate (F1,6BP) and ADP from fructose-6-phosphate (F6P) and ATP, and in many metabolic circumstances makes an important contribution to the control of flux through the glycolytic pathway. As a specific glycolytic target, PFK is particularly attractive as it catalyzes the first irreversible step in glycolysis, and structural and kinetic studies have shown very substantial and essential differences from corresponding host enzymes, allowing for the discovery of parasite-selective inhibitors. A luminescent secondary assay was also performed that used luciferase-based nucleotide detection ([…]) similar to the qHTS, but that alternatively used saturating concentrations (10x Km concentrations) of ATP or F6P to determine if inhibitor potencies were shifted due to particular substrate competition. […] NIH Molecular Libraries Probe Production Network [MLPCN] NIH Chemical Genomics Center [NCGC] Grant: 1 R03 MH092153-01 PI Name: Malcolm Walkinshaw, University of Edinburgh
# Substrate buffer was dispensed into white, solid 1536-well plates at 3 uL/well in 0.1M triethanolamine (TEA) buffer, pH 8.0, containing final concentrations of 5 mM MgCl2 and 0.01% Tween20. Standard substrate buffer contained 0.5mM fructose-6-phosphate (F6P) and 0.1mM ATP, high ATP substrate buffer contained 0.5mM fructose-6-phosphate (F6P) and 1mM ATP, high F6P substrate buffer contained 5mM fructose-6-phosphate (F6P) and 0.1mM ATP, and high ATP/F6P buffer contained 5mM fructose-6-phosphate (F6P) and 1mM ATP. Then, 23nl of compounds or DMSO were delivered to each well using a pin tool. One uL of T. brucei PFK (0.1M TEA, 0.01% Tween20, 0.1% bovine serum albumin (BSA) and 1.25nM PFK, final concentrations) was then dispensed, and plates were incubated at room temperature for 45 min. The luminescent detection reagent, Kinase-Glo Plus (Promega), was then added at 2ul/well and incubated for ten minutes at room temperature. The plates were measured on a ViewLux plate reader for luminescent signal using a clear filter with a one second exposure. The %Activity was determined from the corrected luminescence values. 1x (1.25nM) and 0x PFK enzyme controls (untreated) were included to normalize %Activity of identified inhibitors; 0x enzyme values corresponded to 100%Activity (full inhibition), while 1x PFK enzyme values were used to normalize 0% Activity (no inhibition).
row,SMILES,Potency
1,Cc1cc(NS(=O)(=O)c2ccc(NC(=O)C(C)(C)c3ccc(Cl)c(Cl)c3)cc2)no1,"inconclusive: 36.6 µM [inhibitor, partial curve]"
2,Cc1cc(NS(=O)(=O)CCNC(=O)Cc2ccc(Cl)c(Cl)c2)no1,"inconclusive: 20.6 µM [inhibitor, partial curve]"
3,Cc1cc(NS(=O)(=O)c2ccc(NC(=O)c3ccc(Cl)c(Cl)c3)cc2)no1,"inconclusive: 16.3 µM [inhibitor, partial curve]"
4,O=C(Cc1ccc(Cl)c(Cl)c1)Nc1ccc(S(=O)(=O)Nc2ccn[nH]2)cc1,active: 0.73 µM
5,Cc1cc(NS(=O)(=O)c2ccc(NC(=O)Cc3ccccc3)cc2)no1,"inconclusive: 20.6 µM [inhibitor, partial curve, poor fit]"
6,Cc1cc(NS(=O)(=O)c2ccc(NC(=O)Cc3ccc(Cl)c(Cl)c3)cc2)n(C)n1,active: 1.83 µM
7,CCOC(=O)c1cccc(NS(=O)(=O)c2ccc(NC(=O)Cc3ccc(Cl)c(Cl)c3)cc2)c1,inactive
8,Cc1cc(NS(=O)(=O)c2ccc(NS(=O)(=O)Cc3ccc(Cl)c(Cl)c3)cc2)no1,"inconclusive: 32.6 µM [inhibitor, partial curve]"
9,Cc1cc(NS(=O)(=O)C2CCN(C(=O)Cc3ccc(Cl)c(Cl)c3)CC2)no1,"inconclusive: 18.3 µM [inhibitor, partial curve, poor fit]"
10,Cc1cc(NC(=O)c2csc(NC(=O)Cc3ccc(Cl)c(Cl)c3)n2)no1,inactive
11,Cc1cc(NC(=O)c2ccc(NC(=O)Cc3ccc(Cl)c(Cl)c3)cc2)no1,inactive
